Percent effect of library compounds

From ChEMBL document CHEMBL3988442, “University of Dundee, Small-Polar-MMV Screening Library” (2021).

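Cell assay of Leishmania donovani living inside macrophages; the read-out is not stated. Concentration: 30 µM. The record gives no direction; compounds that gave an IC50 in retests scored well above the rest, so higher reads as stronger inhibition. Of about 69,000 compounds tested this way, about 1,000 (1.5%) reached 50% or more in at least one test.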

Values are the deposited “Percent Effect”, in %.
How 0% and 100% were set is not recorded. Most values in the screen are low, and negative values occur.
This is an unselected part of the compounds tested.
Two or more numbers in one place are separate tests of the same structure; such repeats can differ widely.

SMILES	effect
Cc1nn(C)c(C)c1CCC(=O)N1CCCOC(Cn2cccn2)C1 (stereo not drawn)	-14.65
CCOc1ncccc1NC(=O)c1ccc(C)s1	-19.26
CN1Cc2ccccc2CC2(CCN(Cc3nccn3C)CC2)C1=O	4.961
Oc1ccccc1-c1n[nH]c(C2CC2)n1	21.1
C=C(C)CNc1ccc(C(=O)N(CC)Cc2nccn2C)cn1	-2.424
[H][C@@]12C[C@@H](Oc3cncnc3)CN1CCN(C(=O)c1ccncc1)C2	3.812
CC1CCN(C(=O)c2cn(-c3cc(N4CCSCC4)ncn3)cn2)CC1	26.27
O=C(CS(=O)(=O)Cc1cc(Cl)c2c(c1)OCCCO2)NCC1CC1	9.049
O=C(NCc1ccc2nonc2c1)C1CCN(C(=O)C2CCC2)CC1	-9.346
CN(C)S(=O)(=O)c1csc(C(=O)N2CCSCC2)c1	5.503
Cc1cccn2c(CNC(C)CO)cnc12 (stereo not drawn)	-16.05
O=C(O)C(F)(F)F.[H][C@]12CCN(Cc3ccc(OC)cc3)C[C@@]1([H])OCCN(S(C)(=O)=O)C2	-11.57 and -6.533
CN(C)c1nccc(C2CN(c3cnccn3)CCO2)n1 (stereo not drawn)	2.187
CC(C)N(C)S(=O)(=O)c1ccc2c(c1)CCN(C(=O)c1cnccn1)C2	-49.64
Cc1nnc(NC(=O)NCc2cccnc2N(C)C)s1	24.42
[H][C@@]12CCN(C(=O)c3cscn3)[C@]1([H])CN(C(=O)C1CCOC1)C2 (stereo partly drawn)	13.09
CN1CC2(CCN(S(=O)(=O)C3CC3)CC2)c2ccccc21.O=C(O)C(F)(F)F	14.72
COC1COC2(CCN(S(=O)(=O)c3ccc(F)cc3)CC2)C1 (stereo not drawn)	5.953
O=C(c1nccc2ccccc12)N(Cc1ccco1)CC1CCCO1 (stereo not drawn)	6.468
COc1ccc(C(=O)N2C[C@@H](C)[C@@](C)(O)C2)cc1N1CCOCC1	10.57
[H][C@@]12CN(C)CCO[C@]1([H])CN(Cc1nc(C)cs1)C2	33.41
Cc1c(COC(C)C)cccc1NC(=O)N1CC[C@H](O)C1	11.85
COc1cccc(N2C(=O)CC3(CCCNC3)C2=O)c1.Cl (stereo not drawn)	21.76
CCOc1ccc(C#N)cc1NC(=O)N1CCOC(C(N)=O)C1 (stereo not drawn)	-19.3
CC(C)Cc1cc(CNC(=O)c2ccccc2C2CCNC2)no1 (stereo not drawn)	18.95
Cc1c(NC(=O)CN(C)S(C)(=O)=O)cccc1OC1CCCC1	12.84
CC(Cn1cccn1)NC(=O)NCCCN1CCc2ccccc2C1 (stereo not drawn)	-17.71
COCCc1noc(C2CCCN(c3nc(N)nc4c3CCCC4)C2)n1 (stereo not drawn)	19.27
Cc1cc(NC(=O)C(C)N2CCN(c3nc(C)cs3)CC2)on1 (stereo not drawn)	7.224
CCOc1ccccc1CSCCn1nc2ccccn2c1=O	-1.651
CN(CCC1CCOCC1)[C@@H]1c2ccccc2C2(CCNCC2)[C@H]1O	-13.18
CC(C)C(NCc1ccc(Cn2cncn2)cc1)c1ccccc1 (stereo not drawn)	-14.16
CN(C)CC(O)Cn1cc(NCc2ccc(Br)cc2)cn1 (stereo not drawn)	32.16
N#Cc1cccnc1NC1CCN(c2ccccc2OC(F)F)C1=O (stereo not drawn)	-19.72
O=C(C1CC(=O)N(C2CC2)C1)N1CCN(CCn2cccc2)CC1 (stereo not drawn)	11.43
CCOCCn1nc(C)cc1C(=O)N1CC[C@](O)(CC)[C@H](O)C1	-4.653
O=C1CC[C@H](C(=O)Nc2cnn(-c3ccccc3Br)c2)N1	5.24
CN(CCC(F)(F)F)C(=O)C1CSCN1C(=O)C(C)(C)C (stereo not drawn)	-27.77
Cc1ccc(C)c(C(C)NC(=O)N2CCC(n3cncn3)CC2)c1 (stereo not drawn)	-22.54
CC(=O)N1CCC(C(=O)NC(C)c2cccc(OC(F)F)c2)CC1 (stereo not drawn)	-201.6
Cc1cc(C)c(CNC(=O)N2CCC(N3CCCC3)CC2)c(=O)[nH]1	42.09
O=C1NC2(CCN(CC(=O)N3CCOCC3)CC2)Nc2ccccc21	15.8
CC(CNC(=O)NCc1ccco1)N1CCc2sccc2C1 (stereo not drawn)	29.38
CC(C)c1cc(CNC(=O)NCc2cccc(N3CC=CC3)c2)on1	39.25
Cn1cc(CN2CCCC3(CCN(c4cccnc4)C3=O)C2)cn1 (stereo not drawn)	5.099
COc1c(CNC2CCCOc3ccc(F)cc32)c(C(C)C)nn1C.Cl (stereo not drawn)	17.19
Cc1ccc(S(=O)(=O)NCCNC(=O)c2ccoc2)cc1F	5.786
Cc1nc(COCC2CN(C(N)=O)Cc3nccn3C2)cs1.O=C(O)C(F)(F)F (stereo not drawn)	9.922
Cc1csc(N2CCN(C(=O)c3cc(C4CC4)[nH]n3)CC2)n1	-18.13
CN(C)C(=O)c1ccccc1NCCCOc1cccc(C#N)c1	7.395
Cn1c(SCc2noc(C(C)(C)C)n2)nnc1C1CCS(=O)(=O)C1 (stereo not drawn)	16.97
O=C(O)C(F)(F)F.[H][C@@]12C[C@H](C(=O)N(C)C)CN(CCOc3ccc(Cl)cc3)[C@]1([H])CCO2	6.977
CCC(C)NC(=O)CS(=O)(=O)Cc1cc(Cl)ccc1OC (stereo not drawn)	10.79
O=C(CN1CCN(C(=O)c2sccc2C2CC2)CC1)NC1CC1	3.282
COCCNC(=O)N1CCOCC1c1c(C)nn(C)c1C (stereo not drawn)	-26.44
COCC1c2c(cnn2C)CCN1Cc1ccc(C)o1 (stereo not drawn)	8.052
CCc1csc(NC(=O)Nc2c(C)n[nH]c2C)n1	11.28
COCc1ncc(CN(Cc2ccco2)C(C)C(C)C)cn1 (stereo not drawn)	-44.01
c1cc(CNCCC2CCCO2)ccn1 (stereo not drawn)	14.82
Cc1cc(CN(C)C2CCCN(c3cccnn3)C2)no1 (stereo not drawn)	10.31
COc1ccccc1CC(=O)NC(CC(=O)O)c1ccc(F)cc1 (stereo not drawn)	32.25
O=C(NCCNS(=O)(=O)c1cc(F)cc(F)c1)c1ccoc1	13.77
O=C(c1cc[nH]n1)N1CCc2cc(Br)sc2C1	26.74
[H][C@@]12CN(C(=O)c3ccoc3C)C[C@]1([H])C(=O)N(Cc1csc(C)n1)C2	37.14
Cn1nnc(NCc2ccc(OCc3ccc(Cl)cc3)cc2)n1	-21.74
Cc1oc(C)c(C(=O)N2CCCN(c3nccs3)CC2)c1C	-2.638
N#Cc1cc2c(=O)n(CC(O)c3cccc(O)c3)ccc2[nH]c1=O (stereo not drawn)	52.32
COc1ccc(S(=O)(=O)N2CCC(Cn3ccnc3)CC2)cc1	-6.731
CCN(CC)C(C)CNC(=O)c1cccnc1Oc1cccnc1 (stereo not drawn)	23.93
CCc1nn(-c2cc(Oc3cc(C)ccc3C)nc(C)n2)c(N)c1C#N	18.36
COc1cc(CNCc2ccnc(N3CCCCC3)c2)cc(OC)c1	48.4
Cc1nc(C)n(CC2CCCCN2CC(=O)Nc2ccncc2)n1 (stereo not drawn)	-8.014
COc1cc(CNC(=O)NCc2c(C)cc(C)[nH]c2=O)ccc1C	-3.356
CCOc1ccc2oc(-c3cn(C)nc3C)c(O)c(=O)c2c1	19.71
Cn1ccc(CN2CCCC23CCNCC3)n1	10.25
COc1ccc(N2Cc3n[nH]c(=O)n3C2=O)cc1	27.77
Cc1cc(C)n(CC2CCCN2C(=O)c2cnccn2)n1 (stereo not drawn)	11.86
c1csc(CN2CCc3nc(N4CCOCC4)nc(NC4CC4)c3C2)n1	-15.77 and -25.7
O=C(O)C(F)(F)F.O=C(O)C(F)(F)F.[H][C@@]12COC[C@]1(COCc1ccccn1)CN(c1cc(OC)ncn1)C2	17.46
Cc1nc(C)c(C(=O)NCCNC(=O)Cc2ccc(F)cc2)s1	10.29
Cc1noc(CN(CCO)Cc2cc(Br)ccc2F)n1	7.596
CCc1ccc2c(c1)C(CCNC(=O)Cc1cccc(F)c1)C(=O)N2 (stereo not drawn)	2.029
COc1ccc(-c2cccc(-c3ccn(CC4COCCO4)n3)c2)nn1 (stereo not drawn)	31.12
O=C(Nc1cnn(CCN2CCOCC2)c1)c1ccccc1O	4.773
Cc1cccc(CC2CCCN(C(=O)C3CCOCC3)C2)n1 (stereo not drawn)	20.21 and 30.27
CCN1CCOCC2(CCCN(C(=O)c3ccccc3F)C2)C1.O=C(O)C(F)(F)F (stereo not drawn)	4.109
Cc1ccc(F)cc1NC(=O)C1CCCN1C(=O)C(C)C (stereo not drawn)	18.69
Cc1ccc(NC2CCN(C(=O)c3ccc(C)o3)CC2)nn1	25.92
O=C(O)C(F)(F)F.[H][C@]12CCN(c3ncc(CC)cn3)CC[C@@]1([H])S(=O)(=O)N(CCC(C)C)C2	21.83
CNc1cc2c(nn1)CCN(C(=O)C1CCCc3ccccc31)C2 (stereo not drawn)	11.68
Cc1ncc(CN(C)CC2CCCN2c2cccnn2)s1 (stereo not drawn)	18.49
O=C(CC1CC1)N1C[C@@H](O)[C@H](N2CCN(c3ccccc3)CC2)C1	-18
[H][C@]12CNC[C@@]1([H])[C@H](C(=O)NCc1ccccn1)COC2	-4.162
CCn1cc(N)c(-c2nnc3n2CCC3)n1	20.58

Some entries from above, unchanged:

| SMILES | effect |
|---|---|
| `Cc1nnc(NC(=O)NCc2cccnc2N(C)C)s1` | 24.42 |
| `O=C(C1CC(=O)N(C2CC2)C1)N1CCN(CCn2cccc2)CC1` (stereo not drawn) | 11.43 |
| `COCCNC(=O)N1CCOCC1c1c(C)nn(C)c1C` (stereo not drawn) | -26.44 |
| `O=C(Nc1cnn(CCN2CCOCC2)c1)c1ccccc1O` | 4.773 |
| `O=C1NC2(CCN(CC(=O)N3CCOCC3)CC2)Nc2ccccc21` | 15.8 |
| `CN(C)C(=O)c1ccccc1NCCCOc1cccc(C#N)c1` | 7.395 |
| `CN(C)c1nccc(C2CN(c3cnccn3)CCO2)n1` (stereo not drawn) | 2.187 |
| `N#Cc1cc2c(=O)n(CC(O)c3cccc(O)c3)ccc2[nH]c1=O` (stereo not drawn) | 52.32 |
| `CCC(C)NC(=O)CS(=O)(=O)Cc1cc(Cl)ccc1OC` (stereo not drawn) | 10.79 |
| `Cc1c(NC(=O)CN(C)S(C)(=O)=O)cccc1OC1CCCC1` | 12.84 |